According to US6120992:
For at least one entry, the source does not settle the construct or the ends of the probe. No signal at the amounts used counts as a negative. Weaker means in comparison with the reference protein, sequence or condition of that experiment.

Sequences of proteins named here, by UniProt entry; tags and fusion partners are left off. A change or cut given only in a name is not applied to a line headed by its entry.
UniProt P23909: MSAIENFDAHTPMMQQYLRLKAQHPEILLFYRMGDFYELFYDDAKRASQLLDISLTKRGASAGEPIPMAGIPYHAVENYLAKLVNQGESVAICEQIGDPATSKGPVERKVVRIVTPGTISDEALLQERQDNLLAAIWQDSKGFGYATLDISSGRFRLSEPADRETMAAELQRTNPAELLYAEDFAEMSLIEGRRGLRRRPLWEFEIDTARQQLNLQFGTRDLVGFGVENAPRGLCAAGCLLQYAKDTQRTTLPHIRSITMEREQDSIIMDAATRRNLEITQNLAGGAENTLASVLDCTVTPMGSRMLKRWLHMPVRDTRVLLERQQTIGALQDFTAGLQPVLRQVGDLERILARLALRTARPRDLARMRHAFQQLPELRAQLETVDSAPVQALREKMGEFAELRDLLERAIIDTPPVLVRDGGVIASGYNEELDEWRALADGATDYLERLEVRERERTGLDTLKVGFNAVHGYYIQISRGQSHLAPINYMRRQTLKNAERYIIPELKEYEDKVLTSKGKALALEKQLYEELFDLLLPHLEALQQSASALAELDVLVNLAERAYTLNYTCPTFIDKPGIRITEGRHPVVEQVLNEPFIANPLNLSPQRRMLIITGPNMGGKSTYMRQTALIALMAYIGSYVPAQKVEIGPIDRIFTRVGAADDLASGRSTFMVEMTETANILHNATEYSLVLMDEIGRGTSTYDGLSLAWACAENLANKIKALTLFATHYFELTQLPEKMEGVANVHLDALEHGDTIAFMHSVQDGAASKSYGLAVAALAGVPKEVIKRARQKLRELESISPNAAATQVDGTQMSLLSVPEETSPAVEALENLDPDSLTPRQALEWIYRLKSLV

Molecular target: MutS (Escherichia coli) (UniProt P23909)
Assay: binding assay
Conditions: immobilized MutS, label: 5' biotin on first strand
[1] = [strand 1: 1 (5'-biotin)], detected less well than 1-2 unpaired bases, letters built from the parent sequence and the stated change

Sequence	binding result (only mismatch not detected)	binding result [1]
GCACCTGACTCCTGGCGAGAAGTCTGCCGT / ACGGCAGACTTCTCCCCAGGAGTCAGGTGC [C//C mismatch 30mer]	no binding	
GCACCTGACTCCTGGGGAGAAGTCTGCCGT / ACGGCAGACTTCTCCGACCCAGGAGTCAGGTGC [Unpaired CAG]		binds more weakly
GCACCTGACTCCTGGGGAGAAGTCTGCCGT / ACGGCAGACTTCTCCGGACCCAGGAGTCAGGTGC [Unpaired CAGG]		binds more weakly
